Assay results as given in the supplement of paper PMC8728848.
The other results are listed elsewhere or left out.

Tests used:
Assay in all cases: glycan array binding signal (z-score within array); higher = stronger binding
Settings in all cases: glycan notation: IUPAC condensed, linker removed
[1] = target: GalNAc3S(b1-4)[Fuc(a1-3)]GlcNAc
Outline: (§1)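 Arrays were curated from the Consortium for Functional Glycomics database, 3228 in total, and kept only where the protein sequence was available. Binding is expressed as a within-array Z-score. This score was averaged across arrays of the same protein sequence at different concentrations or buffers and across linkers, and negative values can be read as non-binding.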

[2] = target: GalNAc4S6S(b1-4)GlcNAc
Outline: as §1

[3] = target: GalNAc6S(b1-4)GlcNAc
Outline: as §1

[4] = target: Glc(a1-4)Glc
Outline: as §1

[5] = target: Glc(a1-4)Glc(a1-4)Glc(a1-4)Glc
Outline: as §1

[6] = target: Glc(a1-6)Glc(a1-6)Glc
Outline: as §1

[7] = target: Glc(a1-6)Glc(a1-6)Glc(a1-6)Glc
Outline: as §1

[8] = target: Glc(b1-4)Glc
Outline: as §1

[9] = target: Glc(b1-6)Glc
Outline: as §1

[10] = target: GlcA(b1-3)Gal
Outline: as §1

[11] = target: GlcA(b1-3)GlcNAc
Outline: as §1

[12] = target: GlcA(b1-6)Gal
Outline: as §1

[13] = target: GlcA3S(b1-3)Gal(b1-4)GlcNAc(b1-2)Man
Outline: as §1

[14] = target: GlcA3S(b1-3)Gal(b1-4)GlcNAc(b1-3)Gal(b1-4)Glc
Outline: as §1

[15] = target: GlcNAc(a1-3)Gal(b1-4)GlcNAc
Outline: as §1

[16] = target: GlcNAc(a1-4)Gal(b1-3)GlcNAc
Outline: as §1

[17] = target: GlcNAc(a1-4)Gal(b1-4)GalNAc
Outline: as §1

[18] = target: GlcNAc(a1-4)Gal(b1-4)GlcNAc
Outline: as §1

[19] = target: GlcNAc(a1-4)Gal(b1-4)GlcNAc(b1-3)Gal(b1-4)Glc
Outline: as §1

[20] = target: GlcNAc(a1-4)Gal(b1-4)GlcNAc(b1-3)Gal(b1-4)GlcNAc
Outline: as §1

[21] = target: GlcNAc(a1-4)Gal(b1-4)GlcNAc(b1-3)Gal(b1-4)GlcNAc(b1-3)Gal(b1-4)GlcNAc
Outline: as §1

[22] = target: GlcNAc(a1-4)Gal(b1-4)GlcNAc(b1-3)Gal(b1-4)[Fuc(a1-3)]GlcNAc(b1-3)Gal(b1-4)[Fuc(a1-3)]GlcNAc
Outline: as §1

[23] = target: GlcNAc(a1-6)Gal(b1-4)GlcNAc
Outline: as §1

[24] = target: GlcNAc(b1-2)Gal(b1-3)GalNAc
Outline: as §1

[25] = target: GlcNAc(b1-2)Man(a1-3)[GlcNAc(b1-2)Man(a1-6)]Man(b1-4)GlcNAc(b1-4)GlcNAc
Outline: as §1

[26] = target: GlcNAc(b1-2)Man(a1-3)[GlcNAc(b1-2)Man(a1-6)]Man(b1-4)GlcNAc(b1-4)[Fuc(a1-6)]GlcNAc
Outline: as §1

[27] = target: GlcNAc(b1-2)Man(a1-3)[GlcNAc(b1-4)][GlcNAc(b1-2)Man(a1-6)]Man(b1-4)GlcNAc(b1-4)GlcNAc
Outline: as §1

[28] = target: GlcNAc(b1-2)Man(a1-3)[GlcNAc(b1-4)][GlcNAc(b1-2)Man(a1-6)]Man(b1-4)GlcNAc(b1-4)[Fuc(a1-6)]GlcNAc
Outline: as §1

[29] = target: GlcNAc(b1-2)[GlcNAc(b1-4)]Man(a1-3)[GlcNAc(b1-2)Man(a1-6)]Man(b1-4)GlcNAc(b1-4)GlcNAc
Outline: as §1

[30] = target: GlcNAc(b1-2)[GlcNAc(b1-4)]Man(a1-3)[GlcNAc(b1-4)][GlcNAc(b1-2)Man(a1-6)]Man(b1-4)GlcNAc(b1-4)GlcNAc
Outline: as §1

[31] = target: GlcNAc(b1-2)[GlcNAc(b1-4)]Man(a1-3)[GlcNAc(b1-4)][GlcNAc(b1-2)[GlcNAc(b1-6)]Man(a1-6)]Man(b1-4)GlcNAc(b1-4)GlcNAc
Outline: as §1

[32] = target: GlcNAc(b1-2)[GlcNAc(b1-4)]Man(a1-3)[GlcNAc(b1-4)][GlcNAc(b1-2)[GlcNAc(b1-6)]Man(a1-6)]Man(b1-4)GlcNAc(b1-4)[Fuc(a1-6)]GlcNAc
Outline: as §1

[33] = target: GlcNAc(b1-2)[GlcNAc(b1-6)]Man(a1-6)[GlcNAc(b1-2)Man(a1-3)]Man(b1-4)GlcNAc(b1-4)GlcNAc
Outline: as §1

[34] = target: GlcNAc(b1-2)[GlcNAc(b1-6)]Man(a1-6)[GlcNAc(b1-2)Man(a1-3)]Man(b1-4)GlcNAc(b1-4)[Fuc(a1-6)]GlcNAc
Outline: as §1

[35] = target: GlcNAc(b1-2)[GlcNAc(b1-6)]Man(a1-6)[GlcNAc(b1-4)][GlcNAc(b1-2)Man(a1-3)]Man(b1-4)GlcNAc(b1-4)GlcNAc
Outline: as §1

[36] = target: GlcNAc(b1-3)Fuc
Outline: as §1

[37] = target: GlcNAc(b1-3)Gal
Outline: as §1

[38] = target: GlcNAc(b1-3)Gal(b1-3)GalNAc
Outline: as §1

B1: PX9916F-bfa-443-24-443 (Bacteroides fragilis) (protein)
chain: DIRPVGSVIPQTAEEYRALLARAYLNVPNDRGLACLRSDEMLVNDNEYDRNSYGDIERWNDVSPFPGTSQFTWSNFYNVLFIANQVIESQKEITEGTPEVVNQLVGEAHLLRAYLHFVLVNLHGQPYTKSGALNSKSIPLKLDTDLEKTLGRNTVEEVYTSILSDIEHARELINKEKWETVFSYRFNVLSVDALQSRVSLYMGAWPKCLESAEAVLAKKSVLVDMNETPLALPNHFESVESITALEQVMGSSVNNAVWVPATFLALYQEGDKRLAAYFAAPDENGNRKSSKGGKREFSCTFRVGELYLNAAEAAANMDKLPHARMRLLELMRKRYTPEAYDKKENAVNVMDKNALISEILNERARELAFEGHRWFDLRRTTRPRMVKVLQGKTYILEQDDPRYTIPIPRDAIAANPGLAN
glycan array binding signal (z-score) [1]: -0.5 | glycan array binding signal (z-score) [2]: -0.109 | glycan array binding signal (z-score) [3]: -1.03 | glycan array binding signal (z-score) [4]: 0.362 | glycan array binding signal (z-score) [5]: -0.434 | glycan array binding signal (z-score) [6]: -0.494 | glycan array binding signal (z-score) [7]: 0.231 | glycan array binding signal (z-score) [8]: 1.34 | glycan array binding signal (z-score) [9]: 0.089 | glycan array binding signal (z-score) [10]: -0.094 | glycan array binding signal (z-score) [11]: -0.947 | glycan array binding signal (z-score) [12]: 2.71 | glycan array binding signal (z-score) [13]: -0.319 | glycan array binding signal (z-score) [14]: 0.319 | glycan array binding signal (z-score) [15]: -0.98 | glycan array binding signal (z-score) [16]: -0.212 | glycan array binding signal (z-score) [17]: 1.35 | glycan array binding signal (z-score) [18]: -0.288 | glycan array binding signal (z-score) [19]: -0.689 | glycan array binding signal (z-score) [20]: -1.01 | glycan array binding signal (z-score) [21]: -0.314 | glycan array binding signal (z-score) [22]: 0.015 | glycan array binding signal (z-score) [23]: 0.214 | glycan array binding signal (z-score) [24]: 0.007 | glycan array binding signal (z-score) [25]: -0.266 | glycan array binding signal (z-score) [26]: -0.516 | glycan array binding signal (z-score) [27]: -0.986 | glycan array binding signal (z-score) [28]: -0.859 | glycan array binding signal (z-score) [29]: -0.964 | glycan array binding signal (z-score) [30]: -0.856 | glycan array binding signal (z-score) [31]: -0.259 | glycan array binding signal (z-score) [32]: -1.61 | glycan array binding signal (z-score) [33]: -0.631 | glycan array binding signal (z-score) [34]: -0.383 | glycan array binding signal (z-score) [35]: -0.737 | glycan array binding signal (z-score) [36]: -0.15 | glycan array binding signal (z-score) [37]: -1.16 | glycan array binding signal (z-score) [38]: 0.202
